From paper PMC6232469

Amino acid sequences for entries named in this document (tags omitted).
UniProt P03431: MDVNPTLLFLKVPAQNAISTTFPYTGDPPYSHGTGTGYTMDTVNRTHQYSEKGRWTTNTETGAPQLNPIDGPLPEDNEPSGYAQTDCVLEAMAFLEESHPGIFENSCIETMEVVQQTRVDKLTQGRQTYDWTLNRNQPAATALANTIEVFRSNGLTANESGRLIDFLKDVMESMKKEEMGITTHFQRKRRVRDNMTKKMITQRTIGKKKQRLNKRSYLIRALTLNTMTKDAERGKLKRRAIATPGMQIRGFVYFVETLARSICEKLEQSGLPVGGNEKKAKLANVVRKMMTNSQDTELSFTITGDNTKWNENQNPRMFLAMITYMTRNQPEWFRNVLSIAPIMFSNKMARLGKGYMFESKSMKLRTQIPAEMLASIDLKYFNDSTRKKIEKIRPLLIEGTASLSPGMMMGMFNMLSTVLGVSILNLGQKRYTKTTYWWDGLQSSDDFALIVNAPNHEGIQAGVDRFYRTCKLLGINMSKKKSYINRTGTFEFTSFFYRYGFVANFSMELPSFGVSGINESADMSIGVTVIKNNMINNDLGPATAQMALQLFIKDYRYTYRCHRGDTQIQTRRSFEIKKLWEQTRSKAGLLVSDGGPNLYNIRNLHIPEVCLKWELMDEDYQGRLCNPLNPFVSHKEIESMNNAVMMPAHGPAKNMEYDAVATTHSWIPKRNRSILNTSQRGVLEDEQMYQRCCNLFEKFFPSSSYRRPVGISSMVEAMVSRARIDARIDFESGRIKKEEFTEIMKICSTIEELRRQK
UniProt Q16531: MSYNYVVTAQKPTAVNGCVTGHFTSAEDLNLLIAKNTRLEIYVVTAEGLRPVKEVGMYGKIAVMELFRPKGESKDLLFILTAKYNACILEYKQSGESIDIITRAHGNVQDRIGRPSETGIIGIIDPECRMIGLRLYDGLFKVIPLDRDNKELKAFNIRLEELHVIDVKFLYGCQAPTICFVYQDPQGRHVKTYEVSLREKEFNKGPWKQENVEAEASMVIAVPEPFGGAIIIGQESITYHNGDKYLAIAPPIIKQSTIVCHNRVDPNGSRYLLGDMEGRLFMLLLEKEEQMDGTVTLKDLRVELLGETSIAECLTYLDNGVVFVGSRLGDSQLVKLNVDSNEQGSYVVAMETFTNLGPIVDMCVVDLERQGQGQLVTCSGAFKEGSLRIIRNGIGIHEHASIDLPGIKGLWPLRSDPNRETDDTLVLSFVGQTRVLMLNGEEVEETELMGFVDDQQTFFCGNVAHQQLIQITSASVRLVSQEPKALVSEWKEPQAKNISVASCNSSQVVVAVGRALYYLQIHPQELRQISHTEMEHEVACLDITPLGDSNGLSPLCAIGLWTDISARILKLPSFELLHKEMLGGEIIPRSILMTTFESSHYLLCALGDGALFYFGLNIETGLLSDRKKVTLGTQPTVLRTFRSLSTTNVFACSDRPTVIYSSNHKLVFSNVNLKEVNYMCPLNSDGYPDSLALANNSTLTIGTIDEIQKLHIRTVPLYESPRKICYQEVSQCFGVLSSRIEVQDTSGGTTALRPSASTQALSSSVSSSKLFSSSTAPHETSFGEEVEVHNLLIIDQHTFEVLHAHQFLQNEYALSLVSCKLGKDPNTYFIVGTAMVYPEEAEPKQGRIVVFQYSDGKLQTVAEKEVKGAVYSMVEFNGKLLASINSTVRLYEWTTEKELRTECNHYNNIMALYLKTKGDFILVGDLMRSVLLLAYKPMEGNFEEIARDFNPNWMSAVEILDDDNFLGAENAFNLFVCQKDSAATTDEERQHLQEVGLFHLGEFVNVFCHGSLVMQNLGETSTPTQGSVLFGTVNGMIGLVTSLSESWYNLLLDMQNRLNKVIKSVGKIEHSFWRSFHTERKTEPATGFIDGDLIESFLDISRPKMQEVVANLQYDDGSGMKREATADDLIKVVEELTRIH
UniProt P68104: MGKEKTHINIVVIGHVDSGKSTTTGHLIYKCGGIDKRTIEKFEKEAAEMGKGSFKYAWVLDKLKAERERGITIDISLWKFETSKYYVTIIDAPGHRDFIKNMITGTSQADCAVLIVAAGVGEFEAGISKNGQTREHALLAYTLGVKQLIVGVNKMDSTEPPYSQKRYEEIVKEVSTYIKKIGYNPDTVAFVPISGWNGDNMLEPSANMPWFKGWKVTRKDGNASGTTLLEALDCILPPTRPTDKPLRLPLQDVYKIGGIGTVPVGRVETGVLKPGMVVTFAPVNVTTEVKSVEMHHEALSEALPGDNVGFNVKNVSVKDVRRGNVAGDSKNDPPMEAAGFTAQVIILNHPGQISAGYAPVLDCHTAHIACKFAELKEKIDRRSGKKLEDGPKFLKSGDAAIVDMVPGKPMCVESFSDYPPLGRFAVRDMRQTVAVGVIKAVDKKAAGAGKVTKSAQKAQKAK
UniProt P62136: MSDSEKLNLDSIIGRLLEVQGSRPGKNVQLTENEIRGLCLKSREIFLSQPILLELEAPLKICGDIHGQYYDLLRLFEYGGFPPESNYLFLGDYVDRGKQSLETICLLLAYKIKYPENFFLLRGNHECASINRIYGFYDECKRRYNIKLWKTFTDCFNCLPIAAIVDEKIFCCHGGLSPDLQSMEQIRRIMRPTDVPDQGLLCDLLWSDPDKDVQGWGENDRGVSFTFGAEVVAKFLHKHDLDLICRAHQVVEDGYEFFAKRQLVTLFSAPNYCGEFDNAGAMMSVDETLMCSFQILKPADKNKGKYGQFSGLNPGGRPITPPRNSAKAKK

Molecular target: Flag-PB1 (Flag-tagged polymerase basic protein 1 of A/Puerto Rico/8/1934 H1N1) (influenza A virus A/Puerto Rico/8/1934 (PR8, H1N1)) (UniProt P03431)
Assay: affinity purification with mass spectrometry

Substance | binding
DDB1 (from UniProt Q16531 1-1140) | binds
EEF1A1 (from UniProt P68104 1-462) | binds
PPP1CA (from UniProt P62136 1-330) | binds

These are yes or no findings as the source states them, for the method shown. In cells and extracts the contact can be indirect. These calls come from enrichment with a bait or labelling near it, and not all partners need be listed.
